# According to article PMC7583906, “Functional Recovery of a GCDH Variant Associated to Severe Deflavinylation—Molecular Insights into Potential Beneficial Effects of Riboflavin Supplementation in Glutaric Aciduria-Type I Patients” (International Journal of Molecular Sciences, 2020):
# No constants are given. Whether binding was seen depends on the method and setting.
# B1: GCDH-p.Val400Met clinical variant (enzyme, human)
# chain: EFDWQDPLVLEEQLTTDEILIRDTFRTYCQERLMPRILLANRNEVFHREIISEMGELGVLGPTIKGYGCAGVSSVAYGLLARELERVDSGYRSAMSVQSSLVMHPIYAYGSEEQRQKYLPQLAKGELLGCFGLTEPNSGSDPSSMETRAHYNSSNKSYTLNGTKTWITNSPMADLFVVWARCEDGCIRGFLLEKGMRGLSAPRIQGKFSLRASATGMIIMDGVEVPEENVLPGASSLGGPFGCLNNARYGIAWGVLGASEFCLHTARQYALDRMQFGVPLARNQLIQKKLADMLTEITLGLHACLQLGRLKDQDKAAPEMVSLLKRNNCGKALDIARQARDMLGGNGISDEYHMIRHAMNLEAVNTYEGTHDIHALILGRAITGIQAFTASK
# notes: human glutaryl-CoA dehydrogenase (GCDH), disease variant p.Val400Met of glutaric aciduria type I, recombinant; The assays tell the states apart; also called holo GCDH-p.Val400Met; apo GCDH-p.Val400Met; source: E. coli BL21 (DE3), purified (HisTrap HP); holo form from soluble extract incubated overnight with excess FAD, apo form without the FAD incubation
# Target: GCDH-p.Val400Met clinical variant (human) (UniProt Q92947)
# Experiment: SEC; Superdex 200 10/300 GL, 10 mM HEPES pH 7.8, 150 mM NaCl, typically 0.5 mg applied; apoprotein (no FAD bound) as purified; Gaussian deconvolution of the profile; both purified
binder,measurement,value
B1,binding,"no binding (condition: apo form, no FAD bound)"
